No constants are given. Whether binding was seen depends on the method and setting. In cells and extracts the contact can be indirect. Some results given as binding are weak or reduced against the parent protein; the word gives no strength.
Target: T1, Dclk1 (mouse (endogenous in IECs of Dclk1f/f mice and in YAMC cells)) (UniProt Q9JLM8)
T1 sequence: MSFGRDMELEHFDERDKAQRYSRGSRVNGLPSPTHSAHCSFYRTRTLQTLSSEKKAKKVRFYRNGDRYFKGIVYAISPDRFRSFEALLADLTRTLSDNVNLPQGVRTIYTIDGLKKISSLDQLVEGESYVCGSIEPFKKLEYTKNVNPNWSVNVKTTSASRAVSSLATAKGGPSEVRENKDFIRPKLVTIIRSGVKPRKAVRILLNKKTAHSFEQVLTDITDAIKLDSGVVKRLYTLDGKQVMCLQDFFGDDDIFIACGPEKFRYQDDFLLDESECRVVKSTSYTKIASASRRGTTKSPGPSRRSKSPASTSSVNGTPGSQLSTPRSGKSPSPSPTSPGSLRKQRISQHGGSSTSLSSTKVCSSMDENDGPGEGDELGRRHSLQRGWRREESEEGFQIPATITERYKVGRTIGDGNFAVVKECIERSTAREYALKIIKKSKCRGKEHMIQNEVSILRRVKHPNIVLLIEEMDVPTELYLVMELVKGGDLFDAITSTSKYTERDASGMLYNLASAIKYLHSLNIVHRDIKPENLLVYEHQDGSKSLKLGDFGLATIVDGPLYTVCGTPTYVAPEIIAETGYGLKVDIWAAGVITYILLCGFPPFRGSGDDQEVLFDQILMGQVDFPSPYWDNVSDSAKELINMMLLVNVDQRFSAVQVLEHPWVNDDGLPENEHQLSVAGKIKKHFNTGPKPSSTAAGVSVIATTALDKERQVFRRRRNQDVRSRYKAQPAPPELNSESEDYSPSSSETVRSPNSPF
Test: co-IP; IEC extracts from Dclk1f/f mice at homeostasis, 24 h and 84 h post-TBI (12 Gy); pre-cleared, incubated overnight at 4 °C with antibody recognizing Dclk1, captured on protein A/G-Sepharose; blotted with antibody to ATM or Cox2

The chains behind the UniProt entries cited, without tags or fusion partners. Where a name states a change or a piece, a line headed by the entry shows the natural chain unless it says otherwise.
UniProt Q62388: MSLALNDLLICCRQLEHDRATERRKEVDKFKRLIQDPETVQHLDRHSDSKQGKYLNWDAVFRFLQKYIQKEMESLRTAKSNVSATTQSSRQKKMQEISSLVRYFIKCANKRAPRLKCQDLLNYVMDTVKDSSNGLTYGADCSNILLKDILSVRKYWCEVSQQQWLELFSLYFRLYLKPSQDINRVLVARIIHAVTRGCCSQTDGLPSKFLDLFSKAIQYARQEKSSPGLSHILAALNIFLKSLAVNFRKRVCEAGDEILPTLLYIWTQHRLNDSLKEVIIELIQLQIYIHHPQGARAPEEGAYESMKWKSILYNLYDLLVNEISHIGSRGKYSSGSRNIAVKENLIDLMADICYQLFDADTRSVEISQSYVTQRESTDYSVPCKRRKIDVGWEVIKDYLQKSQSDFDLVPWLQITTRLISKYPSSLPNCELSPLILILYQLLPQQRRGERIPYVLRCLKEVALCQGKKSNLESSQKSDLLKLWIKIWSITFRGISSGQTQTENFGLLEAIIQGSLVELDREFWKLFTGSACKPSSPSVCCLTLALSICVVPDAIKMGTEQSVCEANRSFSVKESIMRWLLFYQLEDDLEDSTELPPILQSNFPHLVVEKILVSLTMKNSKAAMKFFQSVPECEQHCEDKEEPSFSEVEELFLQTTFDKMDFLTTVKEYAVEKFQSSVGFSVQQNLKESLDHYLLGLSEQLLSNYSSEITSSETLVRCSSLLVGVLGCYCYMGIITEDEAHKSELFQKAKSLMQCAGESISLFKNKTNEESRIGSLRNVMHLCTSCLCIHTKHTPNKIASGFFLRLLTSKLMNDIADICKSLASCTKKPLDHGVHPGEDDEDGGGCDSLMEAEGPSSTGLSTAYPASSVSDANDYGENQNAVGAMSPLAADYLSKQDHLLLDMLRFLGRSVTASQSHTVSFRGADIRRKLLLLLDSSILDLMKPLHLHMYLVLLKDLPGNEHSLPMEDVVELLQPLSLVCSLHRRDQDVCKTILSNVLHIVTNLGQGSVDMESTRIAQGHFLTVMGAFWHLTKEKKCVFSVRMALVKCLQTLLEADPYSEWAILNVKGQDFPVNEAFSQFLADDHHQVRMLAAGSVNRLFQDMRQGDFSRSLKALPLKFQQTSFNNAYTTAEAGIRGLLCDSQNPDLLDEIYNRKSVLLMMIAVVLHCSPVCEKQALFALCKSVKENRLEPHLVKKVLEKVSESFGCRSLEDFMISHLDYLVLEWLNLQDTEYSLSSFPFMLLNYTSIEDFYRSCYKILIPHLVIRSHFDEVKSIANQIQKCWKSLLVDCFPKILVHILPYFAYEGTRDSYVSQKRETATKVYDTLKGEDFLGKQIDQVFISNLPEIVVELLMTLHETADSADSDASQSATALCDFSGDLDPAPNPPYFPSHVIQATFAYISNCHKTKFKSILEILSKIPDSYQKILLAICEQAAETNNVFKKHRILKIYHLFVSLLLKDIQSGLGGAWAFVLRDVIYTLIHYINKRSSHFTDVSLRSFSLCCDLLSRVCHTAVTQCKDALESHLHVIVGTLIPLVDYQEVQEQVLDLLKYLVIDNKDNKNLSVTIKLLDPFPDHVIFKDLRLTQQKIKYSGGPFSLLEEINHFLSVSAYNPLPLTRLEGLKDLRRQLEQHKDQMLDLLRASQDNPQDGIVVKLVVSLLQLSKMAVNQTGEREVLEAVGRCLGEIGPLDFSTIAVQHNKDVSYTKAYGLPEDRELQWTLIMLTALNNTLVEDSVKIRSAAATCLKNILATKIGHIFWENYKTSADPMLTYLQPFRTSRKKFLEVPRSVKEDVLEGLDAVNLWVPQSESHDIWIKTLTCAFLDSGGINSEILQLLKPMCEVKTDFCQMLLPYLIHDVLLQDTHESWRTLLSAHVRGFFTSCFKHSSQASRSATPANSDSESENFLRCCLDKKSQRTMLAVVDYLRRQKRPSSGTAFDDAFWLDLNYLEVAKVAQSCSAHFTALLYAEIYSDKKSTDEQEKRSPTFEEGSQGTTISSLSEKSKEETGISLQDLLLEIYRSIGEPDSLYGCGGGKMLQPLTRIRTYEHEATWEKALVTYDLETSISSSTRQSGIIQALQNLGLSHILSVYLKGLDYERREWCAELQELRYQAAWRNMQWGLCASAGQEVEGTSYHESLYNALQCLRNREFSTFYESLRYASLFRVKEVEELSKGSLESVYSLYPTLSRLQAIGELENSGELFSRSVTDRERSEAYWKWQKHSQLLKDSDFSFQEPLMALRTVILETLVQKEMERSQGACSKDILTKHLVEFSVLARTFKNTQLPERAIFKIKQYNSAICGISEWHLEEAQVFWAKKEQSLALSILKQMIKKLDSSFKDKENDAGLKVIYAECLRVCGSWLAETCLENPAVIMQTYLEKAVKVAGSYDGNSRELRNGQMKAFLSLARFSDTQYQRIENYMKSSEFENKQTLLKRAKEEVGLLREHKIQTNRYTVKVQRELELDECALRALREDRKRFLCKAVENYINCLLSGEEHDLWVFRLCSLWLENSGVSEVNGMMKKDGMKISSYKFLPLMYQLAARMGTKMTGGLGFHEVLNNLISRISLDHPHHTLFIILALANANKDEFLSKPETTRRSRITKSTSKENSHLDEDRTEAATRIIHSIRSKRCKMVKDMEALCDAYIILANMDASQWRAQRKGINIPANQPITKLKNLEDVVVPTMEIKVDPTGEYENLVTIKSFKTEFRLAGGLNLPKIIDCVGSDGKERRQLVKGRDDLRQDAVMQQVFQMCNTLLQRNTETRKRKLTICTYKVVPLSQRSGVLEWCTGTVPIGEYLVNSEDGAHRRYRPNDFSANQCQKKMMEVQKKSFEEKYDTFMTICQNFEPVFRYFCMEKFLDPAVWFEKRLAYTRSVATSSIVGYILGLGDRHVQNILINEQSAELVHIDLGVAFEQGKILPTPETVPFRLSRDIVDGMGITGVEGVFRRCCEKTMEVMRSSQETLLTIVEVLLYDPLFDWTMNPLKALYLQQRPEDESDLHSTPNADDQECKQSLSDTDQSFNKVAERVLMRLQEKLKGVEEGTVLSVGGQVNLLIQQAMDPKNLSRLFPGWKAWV

binding: binds
Substance: ATM (ataxia-telangiectasia mutated) (from UniProt Q62388 1-3066)
